{"source": "the supplement of paper PMC11732987", "about": "“Enantioselective OTUD7B fragment discovery through chemoproteomics screening and high-throughput optimisation” (Communications Chemistry, 2025)", "note": "This is one part of the list. The data scatter; read single values as rough."}
{"compound": "ClCC(=O)N[C@H]1CCCc2ccccc12", "assay": "log2 mean competition ratio of IA-DTB cysteine labelling (DMSO/compound) (log2 ratio); higher = stronger cysteine engagement by compound", "details": "200 µM; treatment time: 4 h; cell line lysate: HEK293T", "description": "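IA-DTB competitive cysteine chemoproteomics in HEK293T RIPA lysate. Lysates were treated with compound 29 or 30 at 50 or 200 µM for 4 h, then IA-DTB (500 µM, 1 h), trypsin-digested, NeutrAvidin-enriched and analysed by diaPASEF. Competition ratio = intensity DMSO / intensity compound (n=4 treated, n=64 DMSO); binding: mean log2 CR ≥ 1 and p ≤ 0.05 plus QC filters. Target is the cysteine site.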"}
{"target": "CSRP2 C25 (UniProt Q16527)", "log2 mean competition ratio": -0.165}
{"target": "DCAF5 C728 (UniProt Q96JK2)", "log2 mean competition ratio": 0.243}
{"target": "DAXX C728 (UniProt Q9UER7)", "log2 mean competition ratio": 0.543}
{"target": "DAPK3 C349 (UniProt O43293)", "log2 mean competition ratio": -0.176}
{"target": "CSE1L C85 (UniProt P55060)", "log2 mean competition ratio": -0.0904}
{"target": "DDB1 C128 (UniProt Q16531)", "log2 mean competition ratio": 0.0367}
{"target": "CUL4B C810", "log2 mean competition ratio": 0.136}
{"target": "DDX5 C191 (UniProt P17844)", "log2 mean competition ratio": 0.175}
{"target": "CUL3 C251 (UniProt Q13618)", "log2 mean competition ratio": -0.353}
{"target": "DDX6 C390 (UniProt P26196)", "log2 mean competition ratio": -0.118}
{"target": "CXorf38 C12 (UniProt Q8TB03)", "log2 mean competition ratio": 0.237}
{"target": "DCTN1 C791 (UniProt Q14203)", "log2 mean competition ratio": -0.0343}
{"target": "CSRP2 C122 (UniProt Q16527)", "log2 mean competition ratio": 0.151}
{"target": "DDX39B C165", "log2 mean competition ratio": -0.338}
{"target": "CYFIP1 C98", "log2 mean competition ratio": -0.0655}
{"target": "DCAF5 C812 (UniProt Q96JK2)", "log2 mean competition ratio": 0.00125}
{"target": "CYFIP2 C427 (UniProt Q96F07)", "log2 mean competition ratio": -0.109}
{"target": "DCAF7 C109 (UniProt P61962)", "log2 mean competition ratio": -0.0891}
{"target": "DDX51 C338 (UniProt Q8N8A6)", "log2 mean competition ratio": 0.121}
{"target": "DDX23 C791 (UniProt Q9BUQ8)", "log2 mean competition ratio": -0.235}
{"target": "DDX20 C98 (UniProt Q9UHI6)", "log2 mean competition ratio": 0.39}
{"target": "CTU2 C2 (UniProt Q2VPK5)", "log2 mean competition ratio": -0.101}
{"target": "CYRIB C253", "log2 mean competition ratio": -0.00854}
{"target": "CTNND1 C516 (UniProt O60716)", "log2 mean competition ratio": 0.0313}
{"target": "DDX24 C832 (UniProt Q9GZR7)", "log2 mean competition ratio": 0.123}
{"target": "DDX31 C413 (UniProt Q9H8H2)", "log2 mean competition ratio": -0.0887}
{"target": "DAB2IP C1065 (UniProt Q5VWQ8)", "log2 mean competition ratio": 0.0297}
{"target": "CYP51A1 C351 (UniProt Q16850)", "log2 mean competition ratio": -0.00757}
